The values below come from ChEMBL document CHEMBL3124800, “HTS followed by NMR based counterscreening. Discovery and optimization of pyrimidones as reversible and competitive inhibitors of xanthine oxidase” (Bioorg Med Chem Lett, 2014).

This series is described as follows: Solubility of the compound in phosphate buffer at pH 7.4.

Structures are written as SMILES. Converted amounts (≈) assume the structure as drawn.

Regarding `CC(C)COc1ccc(-c2nc(N)[nH]c(=O)c2Cl)cc1C#N`, the solubility turned out to be 3.1 µM (≈ 0.988 µg/mL).

A word on the solubility: it is the dissolved amount per volume that the medium holds. A high value points to much dissolved substance.
